This is one part of the list. The main result of the screen is listed elsewhere. These columns were measured beside it and carry no call. The list favours compounds with an active or inconclusive main result. Potencies come from curve fits of mixed quality, noted in brackets.
Assay: qHTS Assay for Lipid Storage Modulators in Drosophila S3 Cells;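 as to cell number change: cells counted by Cell Tracker Red CMTPX staining in the red channel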
Conditions: BODIPY lipid droplet fluorescence, 18-24 h; for cell number change: measured here: cell count max response, cells fed with added oleic acid
Method in brief: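 Laser-scanning cytometry quantifies lipid droplet accumulation (500–530 nm total intensity; droplet/cell object ratio) in oleic acid-fed (400 uM added) Drosophila S3 cells treated with a concentration series. 20 uM Triacsin C defined 100% inhibition.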

[1] = measured here: lipid fluorescence (Fed channel) AC50, cells fed with added oleic acid
[2] = measured here: cell number channel AC50, cells fed with added oleic acid

CC(=O)c1cccc(NS(=O)(=O)N2CCCCC2)c1
cell number change: -17.9%
AC50 [1]: 820 nM [falling, partial curve]

CCN(c1ccccc1)S(=O)(=O)c1ccc(Oc2ccc(C(C)=O)cc2OC)nc1
cell number change: -8.25%
AC50 [1]: 1840 nM [rising, partial curve, poor fit]

Cc1cc2cc(CCNC(=O)c3c(-c4ccccc4Cl)noc3C)c(=O)[nH]c2cc1C
AC50 [2]: 820 nM [rising, single point]

CC(=O)c1ccccc1N(C(=O)c1ccco1)C(C(=O)NC1CCCC1)c1ccc(C)cc1 (stereo not given)
cell number change: -28.6%
AC50 [1]: 580 nM [falling, single point]

O=C(O)c1ccc(S(=O)(=O)Cc2ccccc2)cc1
cell number change: -34.5%
AC50 [2]: 164 nM [falling, full curve]
AC50 [1]: 164 nM [falling, full curve]

COc1cc(/C=N/NC(=O)c2cccc(S(=O)(=O)N3CCCCC3)c2)cc(Br)c1O
cell number change: -0.934%
AC50 [2]: 1300 nM [falling, partial curve]
AC50 [1]: 1300 nM [falling, partial curve]

O=C(Nc1ccc(F)cc1)Oc1ccccc1N1CCOCC1
cell number change: 0.0155%
AC50 [2]: 6510 nM [falling, single point]

O=C(c1cccc(S(=O)(=O)Nc2ccc(F)cc2)c1)N1CCOCC1
cell number change: -8.65%

O=c1c2ccccc2nc2n1C(CSc1ccc(Br)cc1)CN2 (stereo not given)
cell number change: -27.3%
AC50 [1]: 164 nM [falling, full curve, poor fit]

CCCn1c(SCC(=O)N2CCc3ccccc32)nnc1-c1ccco1
cell number change: -30.6%
AC50 [2]: 2590 nM [falling, full curve, poor fit]
AC50 [1]: 6510 nM [falling, single point]

C=CCn1c(SC(CCO)C(=O)NCc2ccco2)nc2sc3c(c2c1=O)CCC3 (stereo not given)
cell number change: 0.194%
AC50 [1]: 4110 nM [rising, full curve, poor fit]

COc1ccc(NC(=O)CS(=O)c2ccc(F)cc2)cc1 (stereo not given)
cell number change: -3.93%

CN1CCN(/N=C/c2ccc(-c3ccc([N+](=O)[O-])cc3Cl)o2)CC1
cell number change: 43.3%
AC50 [2]: 29100 nM [rising, single point]
AC50 [1]: 6510 nM [falling, single point]

COc1cc(/C(C)=N/Nc2ccc(C(=O)O)cc2)cc(OC)c1OC
cell number change: 20.5%
AC50 [1]: 11600 nM [rising, partial curve, poor fit]

CCCCn1c(=O)n(C)c(=O)c2c(C(F)(F)F)cc(-c3ccncc3)nc21
cell number change: 16.8%
AC50 [1]: 820 nM [rising, partial curve]

Cc1cnc(NC(=O)CSc2nnc3ncccn23)s1
cell number change: 22.2%

O=C(COC(=O)c1nc(Cl)ccc1Cl)NCc1ccc(Cl)cc1Cl
cell number change: 11.6%

CCc1cc2c(=O)c(-c3ccc4c(c3)OCCO4)coc2cc1OC(=O)c1ccco1
AC50 [2]: 6510 nM [falling, single point]

Cc1ccc(COC(=O)CCc2nc3ccccc3c(=O)[nH]2)cc1
cell number change: 130%

CC(C)c1nc(SCC(=O)N2CCN(c3ccccc3)CC2)c2c(=O)n(C)c(=O)n(C)c2n1
AC50 [2]: 130 nM [rising, full curve, poor fit]
AC50 [1]: 146 nM [rising, full curve]

COc1ccc(NC(=O)/C(=C\c2ccc(OS(=O)(=O)c3ccc(C)cc3)cc2)NC(=O)c2ccccc2)cc1
cell number change: 1.79%
AC50 [2]: 6510 nM [falling, single point]
AC50 [1]: 2060 nM [falling, partial curve]

NC(=O)c1c(NC(=O)c2ccco2)sc2c1CCC2
cell number change: -39.8%
AC50 [2]: 29100 nM [falling, single point]
AC50 [1]: 4.11 nM [rising, full curve, poor fit]

CCCCS(=O)(=O)Nc1ccc2ncn(C)c(=O)c2c1
cell number change: -3.3%
AC50 [1]: 13000 nM [falling, partial curve, poor fit]

O=c1cc2c(nn1Cc1ccccc1)-c1ccccc1CC2
cell number change: 88.1%
AC50 [2]: 9200 nM [rising, partial curve]

Cc1ccc(N2CC(C(=O)Nc3cc(Cl)ccc3-n3cncn3)CC2=O)cc1 (stereo not given)
cell number change: 30.8%
AC50 [2]: 731 nM [rising, full curve, poor fit]
AC50 [1]: 820 nM [rising, full curve, poor fit]

N#Cc1nc(-c2ccc(Cl)cc2)oc1NCc1ccco1
cell number change: -9.39%
AC50 [1]: 3260 nM [rising, full curve]

NNC(=O)CNC(=O)C12CC3CC(CC(C3)C1)C2
cell number change: -11.4%
AC50 [1]: 29100 nM [rising, single point]

Cc1ccc(C2(C)NC(=O)N(CC(=O)NNC(=O)c3ccoc3C)C2=O)cc1 (stereo not given)
cell number change: -22.8%
AC50 [1]: 1300 nM [falling, full curve]

C/C=C(\C)C(=O)NNC(=O)c1sc(-c2ccccc2)nc1C
AC50 [1]: 10300 nM [rising, partial curve, poor fit]

COCCNC(=S)Nc1ccc(N2CCOCC2)c(S(=O)(=O)Nc2ccccc2OC)c1
cell number change: -45.2%
AC50 [2]: 820 nM [falling, full curve, poor fit]
AC50 [1]: 820 nM [falling, full curve, poor fit]

CCCCCCOC(=O)NCC(O)c1ccccc1 (stereo not given)
cell number change: -14.6%

CC(C)(C)C(=O)NC(=S)N1CCc2ccccc21
cell number change: 4.77%
AC50 [1]: 4110 nM [falling, single point]

COc1ccc(NC(=S)NCc2cccnc2)cc1
cell number change: -13%
AC50 [2]: 206 nM [falling, full curve, poor fit]
AC50 [1]: 29100 nM [falling, single point]

CCOC(=O)N1CCN(C(=O)CSc2ccc(-c3cccc(OC)c3)nn2)CC1
cell number change: -38.1%
AC50 [2]: 18400 nM [falling, single point]

COc1ccc(C(=O)COC(=O)CNC(=O)c2cc(OC)cc(OC)c2)cc1
cell number change: 26.4%
AC50 [2]: 5.17 nM [rising, full curve, poor fit]

COCCN(C(=O)COC(=O)CSc1ccccc1)c1c(N)n(Cc2ccccc2)c(=O)[nH]c1=O
cell number change: 8.43%

O=C(CCC(=O)N1CCSc2ccccc21)NCc1cccc(Br)c1
cell number change: -18.4%

O=C(Nc1nccs1)C1CC=CCC1 (stereo not given)
cell number change: 24.6%

CC(C)=CCc1c(O)cc2oc3c(CC=C(C)C)c(O)c(O)c(CC=C(C)C)c3c(=O)c2c1O
cell number change: -74.2%
AC50 [2]: 29100 nM [falling, single point]
AC50 [1]: 29100 nM [falling, single point]

CNC(=S)N/N=C/c1c(C)cccc1Cl
AC50 [1]: 116 nM [rising, single point]

O=C(CNc1ccc(C(F)(F)F)cc1)Nc1cccc(S(=O)(=O)N2CCCC2)c1
cell number change: -10.3%
AC50 [2]: 2310 nM [falling, partial curve, poor fit]
AC50 [1]: 1840 nM [falling, partial curve, poor fit]

CNc1ccc(/C=C(\C#N)c2ccccn2)cc1[N+](=O)[O-]
cell number change: 57.8%
AC50 [2]: 18400 nM [rising, single point]
AC50 [1]: 18400 nM [rising, single point]

NS(=O)(=O)c1ccc(NC(=O)CN2CCCc3ccccc32)cc1
cell number change: 49.2%
AC50 [2]: 23100 nM [rising, single point]

Cc1c(Cl)cccc1NC(=O)CSc1ncnc2c1cnn2CCO
AC50 [1]: 580 nM [rising, single point]

CCOC(=O)NNC(=O)C12CC3CC(CC(C3)C1)C2
cell number change: -57.3%

COc1cccc(-n2cnc3sc(C)cc3c2=O)c1
cell number change: 4.27%

CN(CC(=O)Nc1ccccc1Br)C(=O)c1ccccc1Cc1ccccc1
cell number change: -11.3%
AC50 [1]: 1160 nM [falling, full curve, poor fit]

Fc1ccc(Cn2nnnc2CN2CCN(C3CCCC3)CC2)cc1
cell number change: 5.6%
AC50 [1]: 20600 nM [falling, partial curve]

CN(C)C(=O)NC(Nc1cccc([N+](=O)[O-])c1)C(Cl)(Cl)Cl (stereo not given)
cell number change: 14.2%
AC50 [2]: 6510 nM [falling, single point]

Cc1ccccc1NC(=S)N(CCN(C)C)C(C)c1cccnc1 (stereo not given)
cell number change: -6.86%
AC50 [2]: 651 nM [rising, full curve, poor fit]
AC50 [1]: 1840 nM [rising, full curve, poor fit]

O=C1C2CCCN2C(c2ccc(F)cc2)N1c1ccc(Cl)cc1 (stereo not given)
AC50 [2]: 103 nM [rising, full curve, poor fit]

CCOc1ccc(Nc2oc(-c3ccco3)nc2C#N)cc1
cell number change: 5.23%
AC50 [2]: 8.2 nM [falling, full curve, poor fit]
AC50 [1]: 7310 nM [falling, single point]

S=c1[nH]nc(-c2ccc(Cl)cc2)n1-c1ccc2c(c1)OCCO2
cell number change: -3.83%
AC50 [1]: 29100 nM [rising, single point]

CC1CCCC(NC(=O)CSc2nncs2)C1C (stereo not given)
cell number change: -10%
AC50 [1]: 5.17 nM [rising, full curve, poor fit]

CC1(C)CC(=O)C(C=NCCN2CCN(C(=O)CCl)CC2)=C(O)C1
cell number change: -25.3%

CNC(=O)C1CC(=O)N(c2ccc(OCC(=O)Nc3ccc(OC)cc3)cc2)C1 (stereo not given)
cell number change: 14.6%
AC50 [1]: 29100 nM [rising, single point]

Cc1cc(N2CCOCC2)c2c(N)c(Br)cc(C)c2n1
cell number change: -12%

CCC1CN(C(=O)NCc2ccc(C)cc2)c2cc(Cl)ccc2O1 (stereo not given)
cell number change: 5.67%

COc1cccc(CNC(=O)c2ccc(S(=O)(=O)N3CCOCC3)cc2)c1
cell number change: 32.5%
AC50 [2]: 29100 nM [rising, single point]

Cc1ccc(C(=O)NN2C(=O)CSC2=S)cc1
cell number change: 11.2%
AC50 [1]: 65.1 nM [rising, full curve]

O=[N+]([O-])c1cccc(-c2ccc(CN3CCCCC3)o2)c1
cell number change: -13.8%
